According to the supplement of paper PMC3334620:
Over roughly 33,000 sequences, “E-score (-0.5 to 0.5)” has its median near -0.0059; the highest 2% begin near 0.26. This is one part of the list.

What follows are sequences tested against T1, Cin5 (UniProt P40917) (assay: PBM E-score (8-mer binding enrichment) (E-score (-0.5 to 0.5)); higher = stronger / more preferred TF binding). Conditions: protein concentration: 100 nM; construct: GST-full length.
T1 sequence: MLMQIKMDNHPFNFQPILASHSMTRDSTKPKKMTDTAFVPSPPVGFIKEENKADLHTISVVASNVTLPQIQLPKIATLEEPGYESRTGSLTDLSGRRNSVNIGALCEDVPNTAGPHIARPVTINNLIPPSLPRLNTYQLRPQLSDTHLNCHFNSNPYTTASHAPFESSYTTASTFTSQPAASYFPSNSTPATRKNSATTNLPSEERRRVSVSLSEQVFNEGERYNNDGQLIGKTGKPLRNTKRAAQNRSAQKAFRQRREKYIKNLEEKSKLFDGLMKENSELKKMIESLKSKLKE
Summary of the method: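 Yeast transcription factors carrying a GST tag, as full-length proteins or DNA-binding domains, were produced by PURExpress in vitro transcription/translation. About 100-200 nM protein was applied to universal all-10-mer Agilent arrays, double-stranded by primer extension on fresh or once-stripped slides. Bound protein was detected with fluorescent anti-GST, and scans were normalised with masliner. The Universal PBM Analysis Suite gave each ungapped eight-base word, pooled with its reverse complement, an E-score, a modified Wilcoxon-Mann-Whitney statistic.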

Row | Sequence | PBM E-score
1 | GAGGATTA | 0.0536
2 | ACCCGGAG | -0.0279
3 | GCAGCACA | 0.00715
4 | GGCAGTAA | 0.0124
5 | TGACCGAA | 0.00136
6 | CATAAGAC | 0.222
7 | ATGGGTAG | -0.0956
8 | AAACCAAA | 0.0808
9 | ACTGTAAA | 0.154
10 | AATGCTGT | -0.0772
11 | CACGCTTA | 0.218
12 | AGGCTAAT | 0.0863
13 | CATGTACC | -0.175
14 | GCCTGCCA | -0.0911
15 | CGGGGGTA | -0.25
16 | AGTGTGCC | -0.0429
17 | CCCGAAAA | 0.0533
18 | AGCCAGCC | -0.221
19 | GTCAACAA | -0.0289
20 | ACTGTCTG | -0.122
21 | AAATAGTA | 0.161
22 | CCAAAACC | -0.0268
23 | CAGATCCA | 0.0698
24 | CAGGTGAA | 0.0518
25 | CCAGCGAA | -0.0947

From no. 20 to 25, as listed above:
Row | Sequence | PBM E-score
20 | ACTGTCTG | -0.122
21 | AAATAGTA | 0.161
22 | CCAAAACC | -0.0268
23 | CAGATCCA | 0.0698
24 | CAGGTGAA | 0.0518
25 | CCAGCGAA | -0.0947

(cont.)

Row | Sequence | PBM E-score
26 | GGTCACCA | -0.374
27 | CCGTACTC | -0.0636
28 | CTATCGAG | -0.0192
29 | CTGTGTAC | 0.0881
30 | ACCAACAT | 0.221
31 | CGTGGGGC | -0.0803
32 | AAGCTAAT | 0.0739
33 | AGTTATCG | 0.146
34 | GCCGCCTA | -0.101
35 | CGTTACGA | -0.0231
36 | GGTTCTGA | -0.02
37 | GCATGCGA | 0.231
38 | GCCGTGAC | -0.0205
39 | TGATAAAA | 0.0968
40 | GATTTCAA | 0.129
41 | AGCCACCT | -0.192
42 | GGCTACCA | -0.249
43 | ATAGGACG | 0.00471
44 | ATGATTAG | 0.223
45 | TAAAAGTA | 0.152
46 | AATCAAGA | 0.123
47 | ATGGCCCA | -0.0223
48 | CCCCTCCC | -0.148
49 | ATCTTGAG | 0.061
50 | CAGGGCGA | -0.0306

Taken from above:
AATCAAGA | PBM E-score: 0.123
ACTGTCTG | PBM E-score: -0.122
CCCCTCCC | PBM E-score: -0.148

(continued)

Row | Sequence | PBM E-score
51 | GGGACGAA | -0.145
52 | CGTGACAA | 0.0719
53 | CTTCCCGA | 0.0791
54 | GGAGATAC | -0.0893
55 | AACGCATT | 0.0649
56 | ACTGACCG | -0.144
57 | CATCTTGA | -0.0532
58 | GGATGGTA | 0.119
59 | GGACATTA | 0.142
60 | ACGTAACC | 0.262
61 | CCCGGTGA | -0.171
62 | CAATGATG | 0.0678
63 | AGTCATCA | 0.169
64 | ATCGACTC | -0.0516
65 | CGTCGCAG | -0.11
66 | AGCCCAAC | -0.00666
67 | ATTTATGG | 0.048
68 | CTGCCTAA | -0.0566
69 | GGAACAGA | 0.107
70 | CTCAGGTC | -0.0887
71 | CACTTGCC | 0.0168
72 | GCCACCAC | -0.28
73 | CTCAACCC | -0.15
74 | CATGACCC | -0.0452
75 | CGTTTTCC | -0.0272

Row | Sequence | PBM E-score
76 | TCTTTGCA | 0.0622
77 | AAGCGTGC | 0.0828
78 | CATGTAGC | -0.0321
79 | CCGCAGAA | 0.129
80 | GCATACGA | -0.0648
81 | ATGACCCG | -0.217
82 | CAGCTCCG | -0.0242
83 | CTCTAACC | -0.12
84 | TAAGCCTA | 0.207
85 | AACTATAA | 0.195
86 | CTTCTAAC | -0.192
87 | CGCGCACG | 0.00472
88 | GACATGAA | 0.0409
89 | CGCTTTCA | 0.03
90 | CTACAAGA | -0.0387
91 | CGTCTGTC | -0.0348
92 | AATACTCG | 0.228
93 | GATGGACC | 0.167
94 | CGACGCAC | -3e-05
95 | GTTCTCAA | 0.0545
96 | AGCCTATG | -0.182
97 | ACTACAAG | -0.109
98 | ACTTCGCG | 0.111
99 | GGACTTCA | -0.101
100 | CGTAGCAG | -0.0986

Row | Sequence | PBM E-score
101 | ACTTGGCA | -0.174
102 | GAGTGCCC | -0.165
103 | GGTTCACA | -0.117
104 | TAAGTTGA | 0.102
105 | ACAGTCAC | -0.242
106 | CCCAGAGC | -0.217
107 | GGCATACA | 0.0581
108 | CAGGCGTA | -0.0347
109 | ACTTCCCT | 0.0843
110 | TAAGCGCA | 0.0681
111 | ACCAATGG | 0.0227
112 | CCCCAGAA | -0.0585
113 | CACCCACC | 0.0942
114 | AAGGTATA | -0.0348
115 | ATCCGCGA | 0.015
116 | TATGGCCA | 0.0804
117 | CTTAACTC | 0.145
118 | AGTCGACA | 0.122
119 | CCTCGAAA | 0.069
120 | AAGGAGTA | 0.0703
121 | CGACGTGC | 0.0086
122 | ATCGTCTA | -0.0715
123 | CGAACTTA | 0.0234
124 | AATTGTCG | 0.00659
125 | CCAAGCCG | -0.186

Row | Sequence | PBM E-score
126 | ACCAGCAC | 0.0389
127 | GGCGATGA | -0.0302
128 | AGCCCGAG | -0.211
129 | AGAGCTCT | -0.222
130 | CGGCCAGC | -0.0822
131 | AATAAAGT | 0.231
132 | AGAGAATG | 0.145
133 | TCTATCAA | 0.165
134 | GCTATGCC | -0.272
135 | CCCTGCTA | -0.225
136 | ACTACCAG | -0.086
137 | AGTCATGG | 0.0852
138 | CGTGTGGC | -0.259
139 | CTCACACC | -0.0528
140 | CATTGGTA | -0.0428
141 | ATGTCCTC | -0.0332
142 | CGCCTATC | 0.0575
143 | GCTCTTGA | -0.00938
144 | ATCGCCAA | -0.0749
145 | ACCATGCG | -0.0407
146 | GGGTCGCA | -0.122
147 | ATCCATTA | 0.052
148 | AGATTTGC | 0.24
149 | CGCATCCG | -0.0974
150 | AACGCATG | 0.091

Row | Sequence | PBM E-score
151 | ATACATCG | 0.161
152 | ACGACTAG | 0.0153
153 | CGCCCGCC | -0.0134
154 | ACGGGGCG | 0.0376
155 | CATGGCGC | 0.00485
156 | CACGACGC | -0.163
157 | AAACTCCA | 0.0269
158 | ATACAATC | 0.162
159 | AGTGCAGA | -0.078
160 | AACAAGTT | 0.0368
161 | ACTCCTCA | -0.175
162 | AGGTCGTA | 0.109
163 | AGTACAGC | -0.107
164 | AAAACCGC | 0.0398
165 | AACGAGCT | 0.037
166 | AAACCTTC | -0.0587
167 | CCCGACTC | -0.124
168 | AGTGGAAG | -0.172
169 | ATGAACTG | 0.125
170 | GATTGTTA | 0.0642
171 | CCAGTAGC | -0.0376
172 | CCTCAGCG | -0.00286
